Assay results: PubChem BioAssay AID2685 (National Center for Advancing Translational Sciences (NCATS), 2010)
The list shows a part of the results. Shown are side measurements of this screen, not its main read-out; they come without a call. Most of these compounds were active or inconclusive in the main read-out, so they are no random draw. Words in brackets tell the shape of the fitted curve; partial curves, single points and poor fits give uncertain potencies.

Assay: qHTS Assay for Lipid Storage Modulators in Drosophila S3 Cells;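 on cell number change: cells counted by Cell Tracker Red CMTPX staining in the red channel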
Conditions: BODIPY lipid droplet fluorescence, 18-24 h; for cell number change: measured here: cell count max response, cells fed with added oleic acid
How it was run: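 Drosophila S3 cells loaded with oleic acid (400 uM, as added) and compounds at several concentrations; lipid droplets imaged by 488-nm laser-scanning cytometry, 500–530 nm intensity and object ratio to cell channel. Percent activity normalized to 20 uM Triacsin C.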

[1] = measured here: lipid fluorescence (Fed channel) AC50, cells fed with added oleic acid
[2] = measured here: cell number channel AC50, cells fed with added oleic acid

Row | SMILES | cell number change [%] | AC50 [1] | AC50 [2]
1 | O=C(CN1CCN(Cc2ccc3c(c2)OCO3)CC1)Nc1ccc(N2CCOCC2)cc1 | 12.6 | 0.13 µM [falling, full curve, poor fit] | –
2 | O=C(Nc1cccc(F)c1)c1sc(Cl)nc1-c1ccccc1 | 28.8 | 14.6 µM [rising, single point] | –
3 | CC1CC(C)CN(C(=O)C(C)N2CCN(S(=O)(=O)c3cccs3)CC2)C1 (stereo not drawn) | 10.7 | 0.00461 µM [rising, full curve, poor fit] | –
4 | O=C(Nc1ccccc1)NC1(C(=O)N2CCN(C(=O)c3ccco3)CC2)CCCCC1 | -1.94 | 29.1 µM [rising, single point] | –
5 | CCC(=O)N1CCc2cc(S(=O)(=O)N3CCN(c4ccccc4Cl)CC3)ccc21 | 7.08 | – | –
6 | CC(C)(C)c1ccc(OCCNC(=S)Nc2ccccc2)cc1 | -1.54 | – | –
7 | Cc1ccc(NC(=S)NC(=O)c2ccccc2)cc1NC(=S)NC(=O)c1ccccc1 | 18.6 | 0.259 µM [rising, full curve] | –
8 | Cc1ccc2[nH]c(=O)c(CN(CCCO)S(=O)(=O)c3cccc4nsnc34)cc2c1 | -8.75 | – | –
9 | Cc1cc(/C=C(\C#N)C(=O)NC2CCCCCC2)c(C)[nH]1 | – | 0.92 µM [rising, partial curve] | –
10 | CC(=O)Nc1ccc(Nc2nc(C)c([N+](=O)[O-])c(N(C)c3ccccc3)n2)cc1 | 9.39 | 5.17 µM [rising, full curve, poor fit] | –
11 | N[C@H]1C(O)O[C@H](CO)[C@@H](O)[C@@H]1O (stereo partly drawn) | -4.62 | 2.31 µM [falling, single point] | –
12 | COc1ccc(CCNC(=O)Cc2ccc(NC3=NC4CS(=O)(=O)CC4S3)cc2)c(OC)c1 (stereo not drawn) | -1.15 | – | –
13 | Cc1cc([N+](=O)[O-])cc(/C=N\NC(=O)C2COc3ccccc3O2)c1O (stereo not drawn) | 13 | – | –
14 | CCCCCNC1=CC(=O)CC(c2ccccc2)C1 (stereo not drawn) | 3.16 | – | –
15 | Cc1cc(N2CCCCC2)n2ncc(-c3ccc(Cl)cc3)c2n1 | – | – | 2.06 µM [rising, partial curve]
16 | CC(Sc1nnc(CC(C)c2ccccc2)n1N)C(N)=O (stereo not drawn) | 31.6 | – | 8.2 µM [rising, partial curve, poor fit]
17 | Cc1ccc(-c2ocnc2C(=O)Nc2ccccc2C(=O)N2CCCC2)cc1 | 11.5 | – | –
18 | CN(C)S(=O)(=O)c1ccc(S(=O)(=O)N2CCCC2)cc1 | -42.6 | – | 25.9 µM [falling, single point]
19 | Cc1cccc(C)c1NC(=O)N1CCN(c2nc3ccccc3s2)CC1 | -41.6 | – | 29.1 µM [falling, single point]
20 | Cc1cccc(N2C(=O)CC(Sc3nc(C)c4c(n3)CCCC4)C2=O)c1 (stereo not drawn) | – | – | 2.06 µM [rising, partial curve]
21 | O=S(=O)(c1ccccc1)N(Cc1cccc(F)c1)c1ccccc1 | -5.26 | 29.1 µM [falling, single point] | –
22 | OCC[C@H]1C[C@@H](O)[C@H](O)[C@@]2(Cc3ccccc3CO2)O1 | 18 | – | –

Row | SMILES | cell number change [%] | AC50 [1] | AC50 [2]
23 | CC(C)c1ccc(CC(C)C2C3=C(CCCC3=O)OC3=C2C(=O)CCC3)cc1 (stereo not drawn) | – | 0.116 µM [rising, full curve, poor fit] | 1.64 µM [rising, partial curve]
24 | CCOC(=O)C(NS(=O)(=O)c1ccc(Br)cc1)C(C)C (stereo not drawn) | -17.6 | 20.6 µM [falling, single point] | –
25 | Oc1ccccc1Nc1nc(NCc2ccccc2)c2ccccc2n1 | -59 | 18.4 µM [falling, single point] | 16.4 µM [falling, single point]
26 | O=C1[C@@H]2C(c3cccnc3)=NO[C@@H]2C(=O)N1c1ccc(Br)cc1 | -0.261 | 3.66 µM [falling, full curve] | –
27 | CCNC(=O)CC1C(=O)N(c2ccc(C)cc2)C(=O)N1CCc1ccc(OC)c(OC)c1 (stereo not drawn) | – | 7.31 µM [rising, partial curve] | –
28 | CC(=O)Nc1ccc(NC(=O)CSc2nc(=O)n3cccc(C)c3n2)cc1 | 13.4 | 29.1 µM [rising, single point] | –
29 | CCOc1cc(N2CCOCC2)c(OCC)cc1NC(=O)CSc1nccc(C)n1 | -4.64 | 29.1 µM [rising, single point] | –
30 | Cc1cc(N2C(=O)C(=O)/C(=C(/O)c3ccc(Cl)cc3)C2c2cccc(Br)c2)no1 (stereo not drawn) | -8.83 | 29.1 µM [falling, single point] | –
31 | Cc1ccc(/C=N/NC(=O)c2cc(-c3ccc(C)o3)[nH]n2)cc1 | -10.5 | – | –
32 | O=C(NCCCN1CCCC1=O)c1c(O)nc2sccn2c1=O | -75 | 3.26 µM [rising, single point] | 29.1 µM [falling, partial curve, poor fit]
33 | CC(C)(C)c1cc(NC(=O)NN2CCOCC2)nn1-c1c(Cl)cc(Cl)cc1Cl | -31.8 | 10.3 µM [falling, partial curve] | 25.9 µM [falling, single point]
34 | CC(=O)CCc1ccc(OCC(O)CNC2CCCc3ccccc32)cc1 (stereo not drawn) | 5.82 | 3.26 µM [rising, partial curve] | –
35 | Nc1c(-c2ccc(Cl)cc2)cnn1C1CCS(=O)(=O)C1 (stereo not drawn) | 30.4 | – | 0.164 µM [rising, full curve, poor fit]
36 | Cc1ccccc1C(=O)NCC(=O)OCCCOC(=O)CNC(=O)c1ccccc1C | 37.3 | – | 5.17 µM [rising, partial curve, poor fit]
37 | Fc1ccc(Cn2ccc(-c3cnc(-c4ccccc4)s3)n2)cc1 | – | 2.31 µM [rising, partial curve] | 2.06 µM [rising, partial curve]
38 | COC(=O)c1ccccc1NC(=O)NC1CCCCC1 | 11.8 | – | 2.06 µM [rising, partial curve]
39 | N#Cc1ccc(-c2ccccc2)nc1SCCN1CCOCC1 | 21.5 | 1.46 µM [rising, full curve] | –
40 | O=C(CCC(=O)N(CC(=O)NC1CCCC1)Cc1ccccc1Cl)Nc1nccs1 | 14.8 | 14.6 µM [rising, partial curve] | –
41 | CC(=O)N1CCc2ccc(S(=O)(=O)N3CCc4ccccc43)cc21 | 70.8 | – | 4.11 µM [falling, single point]
42 | COC(=O)c1[nH]c2cc(OC)c(OC)cc2c1NC(=O)c1cccc(OC)c1 | 5.84 | – | 2.91 µM [falling, partial curve, poor fit]
43 | COCc1cc(=O)[nH]c(Nc2nc3ccccc3o2)n1 | -13.8 | 25.9 µM [falling, partial curve, poor fit] | –
44 | CCOc1cccc2sc(=NC(=O)c3ccc(S(=O)(=O)N4CCOCC4)cc3)n(C)c12 | 0.395 | 3.26 µM [falling, partial curve, poor fit] | –

4 entries from above, as labelled records:
CCOc1cc(N2CCOCC2)c(OCC)cc1NC(=O)CSc1nccc(C)n1
  cell number change [%]: -4.64; AC50 [1]: 29.1 µM [rising, single point]
Cc1cc(N2C(=O)C(=O)/C(=C(/O)c3ccc(Cl)cc3)C2c2cccc(Br)c2)no1 (stereo not drawn)
  cell number change [%]: -8.83; AC50 [1]: 29.1 µM [falling, single point]
Cc1ccc(/C=N/NC(=O)c2cc(-c3ccc(C)o3)[nH]n2)cc1
  cell number change [%]: -10.5
O=C(NCCCN1CCCC1=O)c1c(O)nc2sccn2c1=O
  cell number change [%]: -75; AC50 [1]: 3.26 µM [rising, single point]; AC50 [2]: 29.1 µM [falling, partial curve, poor fit]

Continuation:

Row | SMILES | cell number change [%] | AC50 [1] | AC50 [2]
45 | Cc1ccc(OC(=O)c2ccc3nc(C)sc3c2)cc1 | – | 20.6 µM [falling, single point] | –
46 | CCc1ccc(/C=N/n2c(COc3ccccc3)n[nH]c2=S)cc1 | -1.39 | 29.1 µM [rising, single point] | –
47 | CCOC(=O)c1cc(-c2cc3ccccc3o2)n[nH]1 | -12.3 | – | –
48 | C/C(CC(=O)NC1CCCC1)=N\NC(=O)Cc1csc(N)n1 | 38.2 | 0.0291 µM [falling, full curve, poor fit] | 11.6 µM [rising, partial curve]
49 | CCCn1c(N2CCN(C(=O)Nc3ccccc3)CC2)nc2ccccc21 | -26 | 9.2 µM [falling, partial curve, poor fit] | –
50 | Cc1ccc(S(=O)(=O)/N=C2/NC(=O)/C(=C/c3ccncc3)S2)cc1 | – | 0.0092 µM [rising, full curve, poor fit] | –
51 | CCOc1cc(C(=O)Nc2cccc3ncccc23)cc(OCC)c1OCC | 65 | 0.82 µM [rising, single point] | 16.4 µM [rising, partial curve, poor fit]
52 | Cc1cc(C(=O)N(C)CC(=O)Nc2ccc(F)c(F)c2F)no1 | 16.2 | 23.1 µM [rising, single point] | –
53 | NS(=O)(=O)c1ccc(NCc2ccccc2OCc2ccc(F)cc2)cc1 | -21 | – | –
54 | COCc1cc(C)nc2sc(C(=O)Nc3nccs3)c(N)c12 | -2.03 | – | –
55 | Cc1c(NC(=O)CSc2ncnc3ccccc23)c(=O)n(-c2ccccc2)n1C | -2.2 | – | 5.17 µM [rising, single point]
56 | Cc1ccc(C(=O)NC(=S)NCc2ccccc2)cc1 | -5.07 | 7.31 µM [falling, single point] | –
57 | CCc1ccc(NC(=O)Nc2ccsc2C(=O)OC)cc1 | -31.7 | 29.1 µM [rising, single point] | 32.6 µM [falling, single point]
58 | CCCn1c(NC(=O)c2ccc([N+](=O)[O-])o2)nc2ccccc21 | – | 7.31 µM [falling, partial curve] | –
59 | COc1ccc(CCNC(=O)COC(=O)c2cccs2)cc1 | 2.5 | – | –
60 | Cc1cc(OC(=O)N2CCOCC2)cc(C)c1Cl | 4.18 | 6.51 µM [falling, partial curve, poor fit] | –
61 | COC(=O)[C@@H](NC(=O)c1cc(COc2cncc(Cl)c2)on1)c1ccccc1 | 7.51 | – | –
62 | CN1C2C(Br)CCCCN2c2ccc(F)cc2S1(=O)=O (stereo not drawn) | 3.85 | 29.1 µM [falling, single point] | –
63 | CN1C(=O)C(c2nnc(Nc3cccc4ccccc34)s2)C2CC1(C)Oc1ccccc12 (stereo not drawn) | 2.12 | 13 µM [falling, single point] | –
64 | COC(=O)C1(CC2CC(c3ccc(Cl)cc3)=NO2)CCN(C(=O)OC(C)(C)C)CC1 (stereo not drawn) | -27.1 | 6.51 µM [falling, single point] | –
